Experimental data: PMC1712231
Read-outs that look alike come from different tables or passages of the source. No constants are given. Whether binding was seen depends on the method and setting. In cells and extracts the contact can be indirect. Here binding means that the protein was enriched with, or labelled near, the bait; the list need not be complete. For some assays here: Tags and fused reporters may be left off the sequences shown.

Chains of the proteins cited; added tags and fusions are not shown. Residues count along the entry.
UniProt P43003: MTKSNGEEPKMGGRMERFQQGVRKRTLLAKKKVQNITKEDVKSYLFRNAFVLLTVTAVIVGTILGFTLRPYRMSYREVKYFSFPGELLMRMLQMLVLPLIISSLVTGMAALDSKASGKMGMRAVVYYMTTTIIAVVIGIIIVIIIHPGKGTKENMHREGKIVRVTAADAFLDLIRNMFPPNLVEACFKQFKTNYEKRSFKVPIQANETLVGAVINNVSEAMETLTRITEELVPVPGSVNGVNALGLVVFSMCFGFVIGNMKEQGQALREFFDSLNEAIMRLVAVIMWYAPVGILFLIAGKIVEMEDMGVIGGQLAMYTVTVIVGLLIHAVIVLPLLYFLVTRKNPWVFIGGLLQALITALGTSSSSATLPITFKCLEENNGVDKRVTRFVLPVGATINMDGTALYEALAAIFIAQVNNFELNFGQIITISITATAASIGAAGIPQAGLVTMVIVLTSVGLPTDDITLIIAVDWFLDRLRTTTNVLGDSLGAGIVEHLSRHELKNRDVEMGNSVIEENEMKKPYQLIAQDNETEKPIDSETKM
UniProt Q16659: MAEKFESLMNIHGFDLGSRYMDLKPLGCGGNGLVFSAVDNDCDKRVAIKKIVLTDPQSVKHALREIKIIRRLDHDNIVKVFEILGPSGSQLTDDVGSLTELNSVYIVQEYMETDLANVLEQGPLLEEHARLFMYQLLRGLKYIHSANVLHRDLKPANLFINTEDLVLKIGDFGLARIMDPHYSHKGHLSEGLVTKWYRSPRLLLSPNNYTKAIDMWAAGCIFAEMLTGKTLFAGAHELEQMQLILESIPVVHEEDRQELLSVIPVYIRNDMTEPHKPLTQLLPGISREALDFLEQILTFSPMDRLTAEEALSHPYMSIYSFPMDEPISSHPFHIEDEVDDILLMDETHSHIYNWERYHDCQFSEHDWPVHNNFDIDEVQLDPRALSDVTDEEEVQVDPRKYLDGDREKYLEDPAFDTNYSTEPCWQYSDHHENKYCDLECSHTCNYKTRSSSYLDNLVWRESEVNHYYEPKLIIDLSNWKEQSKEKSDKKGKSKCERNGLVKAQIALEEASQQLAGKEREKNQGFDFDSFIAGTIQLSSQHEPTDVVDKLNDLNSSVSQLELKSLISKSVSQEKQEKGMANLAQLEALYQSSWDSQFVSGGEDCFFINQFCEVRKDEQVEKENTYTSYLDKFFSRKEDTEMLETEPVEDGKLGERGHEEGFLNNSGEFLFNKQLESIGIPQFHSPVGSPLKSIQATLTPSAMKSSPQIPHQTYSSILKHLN
UniProt Q9Y3R0: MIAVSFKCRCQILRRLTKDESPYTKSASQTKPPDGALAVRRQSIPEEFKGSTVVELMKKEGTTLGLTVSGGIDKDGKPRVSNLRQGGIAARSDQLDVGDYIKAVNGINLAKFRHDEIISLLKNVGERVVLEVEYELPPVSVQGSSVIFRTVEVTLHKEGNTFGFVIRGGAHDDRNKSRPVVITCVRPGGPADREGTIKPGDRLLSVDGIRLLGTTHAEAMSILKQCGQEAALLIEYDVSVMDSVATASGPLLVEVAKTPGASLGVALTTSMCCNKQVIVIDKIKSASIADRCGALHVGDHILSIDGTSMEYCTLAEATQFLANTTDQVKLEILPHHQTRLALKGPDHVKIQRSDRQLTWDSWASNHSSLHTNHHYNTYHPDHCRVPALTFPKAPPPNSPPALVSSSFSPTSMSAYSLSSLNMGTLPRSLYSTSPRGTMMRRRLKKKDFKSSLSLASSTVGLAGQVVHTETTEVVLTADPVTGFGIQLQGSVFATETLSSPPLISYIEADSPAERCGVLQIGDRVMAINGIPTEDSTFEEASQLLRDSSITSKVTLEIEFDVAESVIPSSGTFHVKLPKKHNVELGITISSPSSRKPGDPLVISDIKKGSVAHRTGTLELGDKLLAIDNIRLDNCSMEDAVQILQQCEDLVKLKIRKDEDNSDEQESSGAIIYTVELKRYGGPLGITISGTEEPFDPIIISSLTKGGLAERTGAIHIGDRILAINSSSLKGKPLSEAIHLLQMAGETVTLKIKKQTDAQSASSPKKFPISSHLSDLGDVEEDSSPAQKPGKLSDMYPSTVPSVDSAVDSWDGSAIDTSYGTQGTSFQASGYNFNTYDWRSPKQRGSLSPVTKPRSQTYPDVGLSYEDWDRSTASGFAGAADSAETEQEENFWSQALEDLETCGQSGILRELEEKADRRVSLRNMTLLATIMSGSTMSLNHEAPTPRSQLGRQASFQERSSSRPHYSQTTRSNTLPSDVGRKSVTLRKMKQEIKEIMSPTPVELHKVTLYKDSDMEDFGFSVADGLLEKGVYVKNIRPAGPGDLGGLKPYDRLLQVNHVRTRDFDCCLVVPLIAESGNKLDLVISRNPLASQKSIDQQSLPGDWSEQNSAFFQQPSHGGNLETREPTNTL
UniProt P11142: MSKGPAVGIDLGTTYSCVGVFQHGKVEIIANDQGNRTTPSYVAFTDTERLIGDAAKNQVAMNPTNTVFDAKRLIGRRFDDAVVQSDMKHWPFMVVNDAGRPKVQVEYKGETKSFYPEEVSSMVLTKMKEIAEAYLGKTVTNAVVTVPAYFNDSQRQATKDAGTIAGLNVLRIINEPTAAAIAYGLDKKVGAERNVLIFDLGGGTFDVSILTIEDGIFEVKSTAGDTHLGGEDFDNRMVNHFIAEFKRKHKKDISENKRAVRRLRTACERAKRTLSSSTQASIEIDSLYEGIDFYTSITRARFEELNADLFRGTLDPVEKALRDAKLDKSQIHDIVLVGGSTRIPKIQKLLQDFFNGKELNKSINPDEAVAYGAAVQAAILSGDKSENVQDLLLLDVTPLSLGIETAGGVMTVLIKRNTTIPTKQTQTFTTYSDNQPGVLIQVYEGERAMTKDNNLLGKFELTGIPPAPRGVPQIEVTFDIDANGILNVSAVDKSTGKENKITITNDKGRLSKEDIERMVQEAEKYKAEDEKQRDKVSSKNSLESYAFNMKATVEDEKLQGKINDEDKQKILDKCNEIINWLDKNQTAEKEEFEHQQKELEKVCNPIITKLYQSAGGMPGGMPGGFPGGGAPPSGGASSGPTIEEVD
UniProt Q9UKL4: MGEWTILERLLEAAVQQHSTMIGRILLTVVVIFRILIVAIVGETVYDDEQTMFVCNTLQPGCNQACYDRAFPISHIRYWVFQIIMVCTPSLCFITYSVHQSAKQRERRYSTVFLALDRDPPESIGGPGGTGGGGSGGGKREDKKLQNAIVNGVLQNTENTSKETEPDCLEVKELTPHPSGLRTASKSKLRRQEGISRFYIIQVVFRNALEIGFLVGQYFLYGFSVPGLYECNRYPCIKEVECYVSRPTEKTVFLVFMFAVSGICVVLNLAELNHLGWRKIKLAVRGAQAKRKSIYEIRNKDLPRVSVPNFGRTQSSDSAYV
UniProt Q13255, residues 19-1194: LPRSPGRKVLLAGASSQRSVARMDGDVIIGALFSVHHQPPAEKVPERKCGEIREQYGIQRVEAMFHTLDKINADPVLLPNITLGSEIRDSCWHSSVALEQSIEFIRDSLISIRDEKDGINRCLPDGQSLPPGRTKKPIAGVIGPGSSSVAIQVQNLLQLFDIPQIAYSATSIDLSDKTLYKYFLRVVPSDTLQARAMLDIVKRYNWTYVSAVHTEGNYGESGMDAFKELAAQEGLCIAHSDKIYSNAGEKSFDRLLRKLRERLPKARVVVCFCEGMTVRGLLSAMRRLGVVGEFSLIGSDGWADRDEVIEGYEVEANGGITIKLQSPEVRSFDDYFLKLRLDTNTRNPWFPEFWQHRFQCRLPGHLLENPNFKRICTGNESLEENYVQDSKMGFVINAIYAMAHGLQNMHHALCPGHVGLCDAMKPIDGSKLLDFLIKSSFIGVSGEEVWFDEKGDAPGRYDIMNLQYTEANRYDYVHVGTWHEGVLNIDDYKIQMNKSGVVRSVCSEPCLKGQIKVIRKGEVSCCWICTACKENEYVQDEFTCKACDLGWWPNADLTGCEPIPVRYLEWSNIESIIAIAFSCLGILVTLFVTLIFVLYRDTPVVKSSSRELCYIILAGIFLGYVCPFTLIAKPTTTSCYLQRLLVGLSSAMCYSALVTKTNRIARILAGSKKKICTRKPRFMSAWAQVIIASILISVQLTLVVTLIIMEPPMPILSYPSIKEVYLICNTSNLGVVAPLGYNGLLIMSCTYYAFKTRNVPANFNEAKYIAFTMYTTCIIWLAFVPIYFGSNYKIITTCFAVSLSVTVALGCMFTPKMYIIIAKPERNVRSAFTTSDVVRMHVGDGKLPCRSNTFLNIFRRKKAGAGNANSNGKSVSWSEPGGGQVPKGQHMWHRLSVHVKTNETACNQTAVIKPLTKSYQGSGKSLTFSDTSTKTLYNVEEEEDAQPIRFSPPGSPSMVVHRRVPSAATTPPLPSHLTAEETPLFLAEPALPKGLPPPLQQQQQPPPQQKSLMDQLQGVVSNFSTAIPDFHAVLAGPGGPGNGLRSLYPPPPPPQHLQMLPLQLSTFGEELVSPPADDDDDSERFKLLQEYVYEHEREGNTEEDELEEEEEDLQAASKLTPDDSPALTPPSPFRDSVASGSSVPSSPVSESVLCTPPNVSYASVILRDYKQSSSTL
UniProt P41594, residues 21-1212: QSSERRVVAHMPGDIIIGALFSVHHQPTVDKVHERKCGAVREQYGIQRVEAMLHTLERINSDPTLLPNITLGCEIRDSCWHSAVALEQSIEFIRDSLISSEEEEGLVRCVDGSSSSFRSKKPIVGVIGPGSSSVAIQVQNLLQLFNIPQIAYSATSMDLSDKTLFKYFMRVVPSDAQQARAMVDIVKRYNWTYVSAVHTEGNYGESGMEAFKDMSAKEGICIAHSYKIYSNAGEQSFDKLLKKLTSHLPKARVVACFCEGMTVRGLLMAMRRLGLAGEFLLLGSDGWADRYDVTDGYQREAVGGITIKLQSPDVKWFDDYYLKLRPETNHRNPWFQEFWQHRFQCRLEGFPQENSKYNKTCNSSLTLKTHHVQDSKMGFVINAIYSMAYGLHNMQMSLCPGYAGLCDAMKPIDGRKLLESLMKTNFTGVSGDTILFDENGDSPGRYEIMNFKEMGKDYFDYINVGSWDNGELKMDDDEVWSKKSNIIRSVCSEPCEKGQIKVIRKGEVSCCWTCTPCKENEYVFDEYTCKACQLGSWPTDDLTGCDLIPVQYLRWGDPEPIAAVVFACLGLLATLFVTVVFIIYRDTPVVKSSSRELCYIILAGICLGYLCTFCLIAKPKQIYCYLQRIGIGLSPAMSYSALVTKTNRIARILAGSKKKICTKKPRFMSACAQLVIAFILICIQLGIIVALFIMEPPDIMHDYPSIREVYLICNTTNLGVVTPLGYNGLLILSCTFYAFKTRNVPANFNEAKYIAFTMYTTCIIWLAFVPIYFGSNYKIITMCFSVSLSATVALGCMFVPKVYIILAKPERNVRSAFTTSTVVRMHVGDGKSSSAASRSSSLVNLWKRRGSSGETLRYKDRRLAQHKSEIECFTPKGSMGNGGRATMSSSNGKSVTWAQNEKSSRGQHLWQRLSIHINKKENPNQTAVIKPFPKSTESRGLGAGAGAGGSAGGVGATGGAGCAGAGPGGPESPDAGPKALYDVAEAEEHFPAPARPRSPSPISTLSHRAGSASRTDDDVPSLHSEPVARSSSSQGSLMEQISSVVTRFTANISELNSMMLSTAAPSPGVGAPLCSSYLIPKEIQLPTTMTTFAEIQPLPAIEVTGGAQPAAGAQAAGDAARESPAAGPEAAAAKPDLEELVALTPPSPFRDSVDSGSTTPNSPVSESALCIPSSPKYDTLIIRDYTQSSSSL
UniProt O43581: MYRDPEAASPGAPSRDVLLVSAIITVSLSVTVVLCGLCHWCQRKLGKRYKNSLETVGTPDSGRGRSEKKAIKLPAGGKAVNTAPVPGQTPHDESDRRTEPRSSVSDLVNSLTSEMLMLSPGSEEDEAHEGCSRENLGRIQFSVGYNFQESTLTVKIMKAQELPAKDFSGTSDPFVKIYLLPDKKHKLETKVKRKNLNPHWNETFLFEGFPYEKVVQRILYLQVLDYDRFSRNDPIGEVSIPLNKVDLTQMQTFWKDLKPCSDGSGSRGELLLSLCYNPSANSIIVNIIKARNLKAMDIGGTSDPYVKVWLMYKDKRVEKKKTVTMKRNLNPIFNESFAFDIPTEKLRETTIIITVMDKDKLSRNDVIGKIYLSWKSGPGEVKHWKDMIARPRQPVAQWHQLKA

T1: PKC zeta (human (endogenous in T84)) (UniProt Q05513)
T1 sequence: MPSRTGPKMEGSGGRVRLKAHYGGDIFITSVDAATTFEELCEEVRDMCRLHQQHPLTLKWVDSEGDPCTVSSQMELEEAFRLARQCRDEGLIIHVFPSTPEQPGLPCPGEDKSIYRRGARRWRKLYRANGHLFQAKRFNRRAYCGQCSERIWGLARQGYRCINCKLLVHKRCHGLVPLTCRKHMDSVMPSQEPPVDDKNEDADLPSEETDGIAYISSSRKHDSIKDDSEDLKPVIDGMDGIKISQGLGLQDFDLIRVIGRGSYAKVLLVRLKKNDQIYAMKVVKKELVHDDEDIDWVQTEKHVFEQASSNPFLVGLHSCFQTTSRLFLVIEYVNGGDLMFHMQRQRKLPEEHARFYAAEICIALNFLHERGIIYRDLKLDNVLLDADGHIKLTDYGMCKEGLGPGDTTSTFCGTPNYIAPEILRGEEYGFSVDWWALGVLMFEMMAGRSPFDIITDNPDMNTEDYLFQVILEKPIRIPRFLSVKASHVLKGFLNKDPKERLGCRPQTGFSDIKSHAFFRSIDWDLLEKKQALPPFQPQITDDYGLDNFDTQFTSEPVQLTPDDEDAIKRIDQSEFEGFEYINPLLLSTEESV

B1: voltage-gated potassium channel Kv2.1 (protein, UniProt Q14721 1-858)
chain: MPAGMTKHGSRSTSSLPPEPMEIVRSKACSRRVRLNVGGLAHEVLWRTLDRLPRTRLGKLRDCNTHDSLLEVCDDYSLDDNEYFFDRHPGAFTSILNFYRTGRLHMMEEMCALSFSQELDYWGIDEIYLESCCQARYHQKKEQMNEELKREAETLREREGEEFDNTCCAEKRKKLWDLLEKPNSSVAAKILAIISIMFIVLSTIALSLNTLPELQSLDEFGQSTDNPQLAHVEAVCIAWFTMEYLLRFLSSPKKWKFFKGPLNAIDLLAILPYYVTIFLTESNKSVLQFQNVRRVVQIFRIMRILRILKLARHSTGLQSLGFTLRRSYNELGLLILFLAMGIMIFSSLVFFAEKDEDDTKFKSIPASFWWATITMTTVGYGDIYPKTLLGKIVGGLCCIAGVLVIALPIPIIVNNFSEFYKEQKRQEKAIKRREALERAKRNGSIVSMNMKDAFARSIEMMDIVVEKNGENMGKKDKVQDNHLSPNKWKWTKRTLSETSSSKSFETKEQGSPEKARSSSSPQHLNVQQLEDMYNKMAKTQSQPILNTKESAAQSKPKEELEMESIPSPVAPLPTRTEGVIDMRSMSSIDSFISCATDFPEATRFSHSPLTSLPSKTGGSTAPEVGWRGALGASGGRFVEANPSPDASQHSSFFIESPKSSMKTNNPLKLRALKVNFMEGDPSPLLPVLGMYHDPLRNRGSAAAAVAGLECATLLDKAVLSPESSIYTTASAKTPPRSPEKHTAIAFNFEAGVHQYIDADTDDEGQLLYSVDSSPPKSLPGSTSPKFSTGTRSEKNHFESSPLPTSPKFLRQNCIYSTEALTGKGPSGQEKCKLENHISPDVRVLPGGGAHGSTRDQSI
B2: rabaptin-5 (protein, UniProt Q15276 1-862)
chain: MAQPGPASQPDVSLQQRVAELEKINAEFLRAQQQLEQEFNQKRAKFKELYLAKEEDLKRQNAVLQAAQDDLGHLRTQLWEAQAEMENIKAIATVSENTKQEAIDEVKRQWREEVASLQAVMKETVRDYEHQFHLRLEQERTQWAQYRESAEREIADLRRRLSEGQEEENLENEMKKAQEDAEKLRSVVMPMEKEIAALKDKLTEAEDKIKELEASKVKELNHYLEAEKSCRTDLEMYVAVLNTQKSVLQEDAEKLRKELHEVCHLLEQERQQHNQLKHTWQKANDQFLESQRLLMRDMQRMEIVLTSEQLRQVEELKKKDQEDDEQQRLNKRKDHKKADVEEEIKIPVVCALTQEESSAQLSNEEEHLDSTRGSVHSLDAGLLLPSGDPFSKSDNDMFKDGLRRAQSTDSLGTSGSLQSKALGYNYKAKSAGNLDESDFGPLVGADSVSENFDTASLGSLQMPSGFMLTKDQERAIKAMTPEQEETASLLSSVTQGMESAYVSPSGYRLVSETEWNLLQKEVHNAGNKLGRRCDMCSNYEKQLQGIQIQEAETRDQVKKLQLMLRQANDQLEKTMKDKQELEDFIKQSSEDSSHQISALVLRAQASEILLEELQQGLSQAKRDVQEQMAVLMQSREQVSEELVRLQKDNDSLQGKHSLHVSLQQAEDFILPDTTEALRELVLKYREDIINVRTAADHVEEKLKAEILFLKEQIQAEQCLKENLEETLQLEIENCKEEIASISSLKAELERIKVEKGQLESTLREKSQQLESLQEIKISLEEQLKKETAAKATVEQLMFEEKNKAQRLQTELDVSEQVQRDFVKLSQTLQVQLERIRQADSLERIRAILNDTKLTDINQLPET

Assays:
[1] = target: T1, PKC zeta (human (endogenous in T84)); experiment: affinity purification with mass spectrometry; anti-PKC zeta immuno-isolate from T84 100,000 x g membranes in 2% CHAPS, peptide-eluted; bands of SDS-PAGE from three purifications, in-gel tryptic digestion, MALDI-TOF peptide mass fingerprint (MS-Fit on SwissProt), hits scored by the paper's own …
[2] = target: T1, PKC zeta (human (endogenous in T84)); experiment: as above; remark: listed apart in the source

Row | Molecule | binding [1] | binding [2]
1 | EAAT1 (from UniProt P43003 1-542) | binds | 
2 | ERK3 (from UniProt Q16659 1-721) (enzyme) | binds | 
3 | GRIP1 (from UniProt Q9Y3R0 1-1128) | binds | 
4 | Homer (human (endogenous in T84)) | binds | 
5 | Hsc70 (from UniProt P11142 1-646) | binds | 
6 | NMDA glutamate receptor zeta subunit (from UniProt Q05586 19-938) | binds | 
7 | STAT2 (from UniProt P52630 1-851) | binds | 
8 | connexin 36 (from UniProt Q9UKL4 1-321) | binds | 
9 | metabotropic glutamate receptor 1 (from UniProt Q13255 19-1194) | binds | 
10 | metabotropic glutamate receptor 5 (from UniProt P41594 21-1212) | binds | 
11 | piccolo (from UniProt Q9Y6V0 1-5142) | binds | 
12 | synaptotagmin VII (from UniProt O43581 1-403) | binds | 
13 | B1 |  | binds
14 | B2 |  | binds
